In US20170001952A1, “FUMARATE COMPOUNDS, PHARMACEUTICAL COMPOSITIONS THEREOF, AND METHODS OF USE” (priority 2015, published 2017):
Some results were stated once for a whole list of compounds, not compound by compound.

Assays:
[1] = Stability of fumarate compounds in PBS buffer; type: physicochemical; settings: PBS 50 mM, pH 7.0 to 7.4, 20 to 37° C., 60 min
porcine liver esterase = assay: Hydrolysis of fumarate compounds in vitro with porcine liver esterase; type: in vitro ADME; settings: porcine liver esterase in PBS buffer pH 7.0 to 8.0, 20 to 37° C., ca. 24 h

| Compound | stable in PBS buffer (HPLC) [1] [%] | converted to monoester fumarates and/or fumaric acid (porcine liver esterase) [%] |
| --- | --- | --- |
| O=C(/C=C/C(=O)OCCNC(=O)Oc1ccccc1)OCCNC(=O)Oc1ccccc1 [Compound 7, Bis[2-(phenoxycarbonylamino)ethyl] (E)-but-2-enedioate] | > 90 | > 10 |
| C[C@H](COC(=O)/C=C/C(=O)OC[C@@H](C)NC(=O)Oc1ccccc1)NC(=O)Oc1ccccc1 [Compound 14, Bis[(2R)-2-(phenoxycarbonylamino)propyl] (E)-but-2-enedioate] | > 90 | > 10 |
| C[C@@H](COC(=O)/C=C/C(=O)OC[C@H](C)NC(=O)Oc1ccccc1)NC(=O)Oc1ccccc1 [Compound 21, Bis[(2S)-2-(phenoxycarbonylamino)propyl] (E)-but-2-enedioate] | > 90 | > 10 |
